Experimental data: PubChem BioAssay AID1259405 (NCATS, 2018)
The deposit covers about 50,000 reagents; this is a part drawn at random. Of all reagents, about 4,000 (8%) got an active call. 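Mouse siRNA library applied to hamster cells; one well for each siRNA.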 Entries without a mark were called inactive. The numbers tell different reagents against one gene apart.

Screen: 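Mouse-designed siRNAs used to find CHO productivity engineering targets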 (primary screen)
Cells: Chinese hamster CHO-K1 ovary cells with stable secreted eGFP expression
Reagent: single siRNA against mouse genes, 0.8 pmol siRNA per well (2 µl of 400 nM stock)
Duration: 3 days
Read-out: 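Percent of the per-plate non-targeting control median for intracellular GFP per well by laser scanning cytometry and for cell viability by ATP luminescence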
Scale: GFP, % of control: higher = more GFP per well, higher productivity; viability (ATP), % of control: higher = more viable cells (more ATP)
Call rule: 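Called active when intracellular GFP, relative to negative control, is at or above 120%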

gene | reagent no. | GFP, % of control | viability (ATP), % of control
Pkd1 | 1 | 120 (active) | 101
Pkd1 | 2 | 54.6 | 83.6
Pkd1 | 3 | 81.6 | 71.3
Nsmaf | 1 | 51 | 51.8
Nsmaf | 2 | 105 | 81.5
Nsmaf | 3 | 76.7 | 74.7
Arid2 (AT-rich interaction domain 2) | 1 | 41.4 | 39.1
Arid2 (AT-rich interaction domain 2) | 2 | 82 | 100
Arid2 (AT-rich interaction domain 2) | 3 | 21 | 23.1
Thra (thyroid hormone receptor alpha) | 1 | 105 | 77.5
Thra (thyroid hormone receptor alpha) | 2 | 66.5 | 74.5
Thra (thyroid hormone receptor alpha) | 3 | 69.7 | 70.9
Prokr1 (prokineticin receptor 1) | 1 | 74 | 82
Prokr1 (prokineticin receptor 1) | 2 | 62.6 | 72.5
Prokr1 (prokineticin receptor 1) | 3 | 56.5 | 44.6
Ipo4 (importin 4) | 1 | 74.5 | 80.4
Ipo4 (importin 4) | 2 | 78.4 | 103
Ipo4 (importin 4) | 3 | 160 (active) | 89.1
Slc22a14 | 1 | 56.9 | 52.5
Slc22a14 | 2 | 99.9 | 87.1
Slc22a14 | 3 | 88.4 | 84.3
Rassf8 | 1 | 50.7 | 28.5
Rassf8 | 2 | 84.1 | 89.9
Rassf8 | 3 | 128 (active) | 148
Or8g30 (olfactory receptor family 8 subfamily G member 30) | 1 | 62.4 | 60.9
Or8g30 (olfactory receptor family 8 subfamily G member 30) | 2 | 65 | 62.9
Or8g30 (olfactory receptor family 8 subfamily G member 30) | 3 | 66.7 | 121
Cd109 (CD109 antigen) | 1 | 85.8 | 70.8
Cd109 (CD109 antigen) | 2 | 108 | 70.8
Cd109 (CD109 antigen) | 3 | 117 | 134
Ehf (ets homologous factor) | 1 | 30.2 | 29.5
Ehf (ets homologous factor) | 2 | 125 (active) | 77.1
Ehf (ets homologous factor) | 3 | 86.7 | 73.2
Tmprss3 (transmembrane protease, serine 3) | 1 | 112 | 106
Tmprss3 (transmembrane protease, serine 3) | 2 | 76.3 | 45.3
Tmprss3 (transmembrane protease, serine 3) | 3 | 57.3 | 64.2
Ppp1r13b (protein phosphatase 1, regulatory subunit 13B) | 1 | 81.6 | 82.9
Ppp1r13b (protein phosphatase 1, regulatory subunit 13B) | 2 | 100 | 83.2
Nudt5 (nudix hydrolase 5) | 1 | 49.1 | 81.4
Nudt5 (nudix hydrolase 5) | 2 | 65.3 | 67.3
Nudt5 (nudix hydrolase 5) | 3 | 64.4 | 38.5
Ric8b (RIC8 guanine nucleotide exchange factor B) | 1 | 97.5 | 92.5
Ric8b (RIC8 guanine nucleotide exchange factor B) | 2 | 15.7 | 23.5
Ric8b (RIC8 guanine nucleotide exchange factor B) | 3 | 60.1 | 82.2
Atxn2 (ataxin 2) | 1 | 140 (active) | 120
Atxn2 (ataxin 2) | 2 | 82.1 | 76.6

Entries above whose gene name starts with O or o (3):
gene | reagent no. | GFP, % of control | viability (ATP), % of control
Or8g30 (olfactory receptor family 8 subfamily G member 30) | 1 | 62.4 | 60.9
Or8g30 (olfactory receptor family 8 subfamily G member 30) | 2 | 65 | 62.9
Or8g30 (olfactory receptor family 8 subfamily G member 30) | 3 | 66.7 | 121

More results follow.
gene | reagent no. | GFP, % of control | viability (ATP), % of control
Pomc (pro-opiomelanocortin-alpha) | 1 | 40 | 59.9
Pomc (pro-opiomelanocortin-alpha) | 2 | 52.7 | 109
Pomc (pro-opiomelanocortin-alpha) | 3 | 47.1 | 53.7
Stap2 (signal transducing adaptor family member 2) | 1 | 77.8 | 71.5
Stap2 (signal transducing adaptor family member 2) | 2 | 76.3 | 82.6
Stap2 (signal transducing adaptor family member 2) | 3 | 69.8 | 83.2
Maoa (monoamine oxidase A) | 1 | 107 | 79.1
Maoa (monoamine oxidase A) | 2 | 87.1 | 59.7
Maoa (monoamine oxidase A) | 3 | 43.6 | 51.3
Lypd9 (LY6/PLAUR domain containing 9) | 1 | 97.7 | 76.9
Lypd9 (LY6/PLAUR domain containing 9) | 2 | 70.2 | 77.9
Lypd9 (LY6/PLAUR domain containing 9) | 3 | 70.6 | 91.6
Suco (SUN domain containing ossification factor) | 1 | 88.9 | 44.3
Suco (SUN domain containing ossification factor) | 2 | 50.6 | 66.5
Suco (SUN domain containing ossification factor) | 3 | 48.4 | 54
Hoxa9 (homeobox A9) | 1 | 77.3 | 65
Hoxa9 (homeobox A9) | 2 | 59.5 | 81.7
Hoxa9 (homeobox A9) | 3 | 40.8 | 78.9
Slbp (stem-loop binding protein) | 1 | 57.9 | 45.2
Slbp (stem-loop binding protein) | 2 | 94.4 | 62.1
Slbp (stem-loop binding protein) | 3 | 63.5 | 42
Spen (spen family transcription repressor) | 1 | 96.1 | 99.1
Spen (spen family transcription repressor) | 2 | 46.8 | 52.5
Spen (spen family transcription repressor) | 3 | 79.3 | 77.9
Vmn1r38 (vomeronasal 1 receptor 38) | 1 | 65.3 | 69.7
Vmn1r38 (vomeronasal 1 receptor 38) | 2 | 74.4 | 46.1
Vmn1r38 (vomeronasal 1 receptor 38) | 3 | 88.6 | 93.3
Edil3 (EGF-like repeats and discoidin I-like domains 3) | 1 | 96.8 | 90.6
Edil3 (EGF-like repeats and discoidin I-like domains 3) | 2 | 64.4 | 81.1
Or5o1 (olfactory receptor family 5 subfamily N member 1) | 1 | 85 | 76.6
Or5o1 (olfactory receptor family 5 subfamily N member 1) | 2 | 94.5 | 75
Or5o1 (olfactory receptor family 5 subfamily N member 1) | 3 | 107 | 107
Klhl36 (kelch-like 36) | 1 | 112 | 124
Klhl36 (kelch-like 36) | 2 | 77.4 | 79.8
Klhl36 (kelch-like 36) | 3 | 153 (active) | 148
Zfp689 (zinc finger protein 689) | 1 | 63.6 | 53.1
Zfp689 (zinc finger protein 689) | 2 | 65.9 | 59.1
Zfp689 (zinc finger protein 689) | 3 | 111 | 101
